{"sequences": {"note": "Protein sequences, listed by entry. Tags and fused reporters are not part of them. Lines headed by an entry give the natural chain unless they say otherwise; changes in a name come on top.", "UniProt Q14766": "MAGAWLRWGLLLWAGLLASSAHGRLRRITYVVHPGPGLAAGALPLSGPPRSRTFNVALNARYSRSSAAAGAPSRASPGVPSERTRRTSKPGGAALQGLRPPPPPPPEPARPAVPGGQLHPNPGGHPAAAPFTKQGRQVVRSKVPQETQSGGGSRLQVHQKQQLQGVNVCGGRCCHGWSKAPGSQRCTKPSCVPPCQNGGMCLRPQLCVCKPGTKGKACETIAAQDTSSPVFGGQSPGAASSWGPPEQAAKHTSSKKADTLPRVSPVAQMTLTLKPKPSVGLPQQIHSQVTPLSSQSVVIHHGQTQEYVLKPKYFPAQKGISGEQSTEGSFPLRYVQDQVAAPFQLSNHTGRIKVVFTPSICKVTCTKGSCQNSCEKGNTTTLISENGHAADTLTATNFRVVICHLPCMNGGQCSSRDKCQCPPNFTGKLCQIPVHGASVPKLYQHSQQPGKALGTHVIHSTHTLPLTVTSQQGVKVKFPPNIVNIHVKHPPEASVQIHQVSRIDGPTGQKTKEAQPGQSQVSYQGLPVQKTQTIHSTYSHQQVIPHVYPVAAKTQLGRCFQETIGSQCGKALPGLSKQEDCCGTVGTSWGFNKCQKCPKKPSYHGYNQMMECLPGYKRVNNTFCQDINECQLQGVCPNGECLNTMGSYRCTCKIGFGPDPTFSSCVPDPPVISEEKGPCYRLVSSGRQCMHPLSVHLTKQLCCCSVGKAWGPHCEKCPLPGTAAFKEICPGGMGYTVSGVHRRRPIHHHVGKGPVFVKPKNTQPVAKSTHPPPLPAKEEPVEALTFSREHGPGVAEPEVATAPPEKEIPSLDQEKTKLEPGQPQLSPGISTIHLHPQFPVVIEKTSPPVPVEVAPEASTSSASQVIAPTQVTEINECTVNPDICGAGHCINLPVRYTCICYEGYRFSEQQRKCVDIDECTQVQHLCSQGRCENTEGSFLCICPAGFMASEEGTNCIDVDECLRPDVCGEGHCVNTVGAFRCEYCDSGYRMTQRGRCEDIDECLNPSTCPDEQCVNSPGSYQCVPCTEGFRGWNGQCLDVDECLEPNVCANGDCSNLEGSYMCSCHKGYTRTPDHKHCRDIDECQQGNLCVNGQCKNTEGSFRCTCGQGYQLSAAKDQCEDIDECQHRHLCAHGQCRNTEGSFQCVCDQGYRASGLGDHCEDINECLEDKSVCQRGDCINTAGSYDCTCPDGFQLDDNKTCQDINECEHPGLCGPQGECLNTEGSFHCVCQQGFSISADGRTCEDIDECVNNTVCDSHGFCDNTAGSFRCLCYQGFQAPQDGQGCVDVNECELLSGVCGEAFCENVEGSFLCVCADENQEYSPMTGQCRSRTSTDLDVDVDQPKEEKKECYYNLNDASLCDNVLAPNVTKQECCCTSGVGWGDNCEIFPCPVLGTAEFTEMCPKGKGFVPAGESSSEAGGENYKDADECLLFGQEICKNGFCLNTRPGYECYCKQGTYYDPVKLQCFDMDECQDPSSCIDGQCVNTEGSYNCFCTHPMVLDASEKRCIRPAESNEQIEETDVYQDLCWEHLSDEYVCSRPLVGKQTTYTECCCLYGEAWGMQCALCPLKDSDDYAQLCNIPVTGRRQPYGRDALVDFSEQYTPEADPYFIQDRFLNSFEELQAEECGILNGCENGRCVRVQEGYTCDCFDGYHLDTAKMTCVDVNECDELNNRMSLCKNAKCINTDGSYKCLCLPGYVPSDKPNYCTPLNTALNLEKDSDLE", "UniProt Q9NTJ4": "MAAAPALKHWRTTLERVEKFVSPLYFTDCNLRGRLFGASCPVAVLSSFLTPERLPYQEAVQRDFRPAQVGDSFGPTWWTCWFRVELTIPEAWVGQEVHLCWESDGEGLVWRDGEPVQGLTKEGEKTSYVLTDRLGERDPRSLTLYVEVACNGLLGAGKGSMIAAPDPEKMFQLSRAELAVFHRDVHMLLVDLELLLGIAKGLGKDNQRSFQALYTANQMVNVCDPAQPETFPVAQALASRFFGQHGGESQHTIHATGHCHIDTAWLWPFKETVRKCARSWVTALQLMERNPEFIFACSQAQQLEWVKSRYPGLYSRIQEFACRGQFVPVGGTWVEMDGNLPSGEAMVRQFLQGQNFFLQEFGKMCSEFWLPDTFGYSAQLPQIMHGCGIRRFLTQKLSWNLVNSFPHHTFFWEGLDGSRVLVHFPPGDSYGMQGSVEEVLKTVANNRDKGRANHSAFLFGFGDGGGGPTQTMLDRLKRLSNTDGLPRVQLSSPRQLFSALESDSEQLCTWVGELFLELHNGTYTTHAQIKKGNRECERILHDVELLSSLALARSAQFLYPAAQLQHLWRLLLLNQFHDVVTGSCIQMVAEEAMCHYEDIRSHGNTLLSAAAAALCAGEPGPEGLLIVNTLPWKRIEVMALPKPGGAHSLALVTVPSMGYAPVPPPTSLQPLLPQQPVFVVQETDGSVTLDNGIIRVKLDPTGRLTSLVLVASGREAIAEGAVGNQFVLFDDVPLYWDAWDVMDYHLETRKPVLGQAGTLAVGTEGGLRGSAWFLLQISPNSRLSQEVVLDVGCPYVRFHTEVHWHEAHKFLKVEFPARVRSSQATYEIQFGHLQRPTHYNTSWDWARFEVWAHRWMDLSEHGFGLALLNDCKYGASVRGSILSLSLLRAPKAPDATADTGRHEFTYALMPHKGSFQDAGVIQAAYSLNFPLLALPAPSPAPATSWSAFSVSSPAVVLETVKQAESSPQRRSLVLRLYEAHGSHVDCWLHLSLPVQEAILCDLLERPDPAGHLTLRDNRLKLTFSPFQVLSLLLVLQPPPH", "UniProt Q3KQU3": "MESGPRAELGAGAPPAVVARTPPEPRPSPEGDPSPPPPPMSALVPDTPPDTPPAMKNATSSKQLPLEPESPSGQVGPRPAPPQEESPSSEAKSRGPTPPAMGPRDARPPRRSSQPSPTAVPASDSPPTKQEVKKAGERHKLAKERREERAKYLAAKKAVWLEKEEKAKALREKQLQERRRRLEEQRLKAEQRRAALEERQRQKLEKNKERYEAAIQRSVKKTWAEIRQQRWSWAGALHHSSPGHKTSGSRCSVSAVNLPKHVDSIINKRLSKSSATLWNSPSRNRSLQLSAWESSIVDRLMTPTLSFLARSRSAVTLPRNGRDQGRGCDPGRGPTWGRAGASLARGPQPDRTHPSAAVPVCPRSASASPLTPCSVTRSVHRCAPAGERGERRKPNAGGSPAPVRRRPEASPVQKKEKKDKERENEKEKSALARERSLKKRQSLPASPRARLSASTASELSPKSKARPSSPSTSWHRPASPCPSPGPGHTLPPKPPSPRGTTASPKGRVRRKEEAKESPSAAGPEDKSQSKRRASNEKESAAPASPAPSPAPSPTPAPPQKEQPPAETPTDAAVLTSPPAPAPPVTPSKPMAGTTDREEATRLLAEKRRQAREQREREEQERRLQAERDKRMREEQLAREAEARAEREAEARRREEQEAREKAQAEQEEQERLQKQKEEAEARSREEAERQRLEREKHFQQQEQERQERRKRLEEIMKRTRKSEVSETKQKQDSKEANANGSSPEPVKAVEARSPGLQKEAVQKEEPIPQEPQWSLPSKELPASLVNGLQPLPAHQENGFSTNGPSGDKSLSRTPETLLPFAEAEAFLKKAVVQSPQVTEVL", "UniProt O95372": "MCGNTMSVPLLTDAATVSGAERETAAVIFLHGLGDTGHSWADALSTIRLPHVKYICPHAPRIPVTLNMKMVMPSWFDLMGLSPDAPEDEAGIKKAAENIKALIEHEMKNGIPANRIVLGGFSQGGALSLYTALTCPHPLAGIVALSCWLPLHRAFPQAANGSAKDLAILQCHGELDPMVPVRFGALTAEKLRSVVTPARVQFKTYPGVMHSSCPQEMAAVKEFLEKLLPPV", "UniProt P46821": "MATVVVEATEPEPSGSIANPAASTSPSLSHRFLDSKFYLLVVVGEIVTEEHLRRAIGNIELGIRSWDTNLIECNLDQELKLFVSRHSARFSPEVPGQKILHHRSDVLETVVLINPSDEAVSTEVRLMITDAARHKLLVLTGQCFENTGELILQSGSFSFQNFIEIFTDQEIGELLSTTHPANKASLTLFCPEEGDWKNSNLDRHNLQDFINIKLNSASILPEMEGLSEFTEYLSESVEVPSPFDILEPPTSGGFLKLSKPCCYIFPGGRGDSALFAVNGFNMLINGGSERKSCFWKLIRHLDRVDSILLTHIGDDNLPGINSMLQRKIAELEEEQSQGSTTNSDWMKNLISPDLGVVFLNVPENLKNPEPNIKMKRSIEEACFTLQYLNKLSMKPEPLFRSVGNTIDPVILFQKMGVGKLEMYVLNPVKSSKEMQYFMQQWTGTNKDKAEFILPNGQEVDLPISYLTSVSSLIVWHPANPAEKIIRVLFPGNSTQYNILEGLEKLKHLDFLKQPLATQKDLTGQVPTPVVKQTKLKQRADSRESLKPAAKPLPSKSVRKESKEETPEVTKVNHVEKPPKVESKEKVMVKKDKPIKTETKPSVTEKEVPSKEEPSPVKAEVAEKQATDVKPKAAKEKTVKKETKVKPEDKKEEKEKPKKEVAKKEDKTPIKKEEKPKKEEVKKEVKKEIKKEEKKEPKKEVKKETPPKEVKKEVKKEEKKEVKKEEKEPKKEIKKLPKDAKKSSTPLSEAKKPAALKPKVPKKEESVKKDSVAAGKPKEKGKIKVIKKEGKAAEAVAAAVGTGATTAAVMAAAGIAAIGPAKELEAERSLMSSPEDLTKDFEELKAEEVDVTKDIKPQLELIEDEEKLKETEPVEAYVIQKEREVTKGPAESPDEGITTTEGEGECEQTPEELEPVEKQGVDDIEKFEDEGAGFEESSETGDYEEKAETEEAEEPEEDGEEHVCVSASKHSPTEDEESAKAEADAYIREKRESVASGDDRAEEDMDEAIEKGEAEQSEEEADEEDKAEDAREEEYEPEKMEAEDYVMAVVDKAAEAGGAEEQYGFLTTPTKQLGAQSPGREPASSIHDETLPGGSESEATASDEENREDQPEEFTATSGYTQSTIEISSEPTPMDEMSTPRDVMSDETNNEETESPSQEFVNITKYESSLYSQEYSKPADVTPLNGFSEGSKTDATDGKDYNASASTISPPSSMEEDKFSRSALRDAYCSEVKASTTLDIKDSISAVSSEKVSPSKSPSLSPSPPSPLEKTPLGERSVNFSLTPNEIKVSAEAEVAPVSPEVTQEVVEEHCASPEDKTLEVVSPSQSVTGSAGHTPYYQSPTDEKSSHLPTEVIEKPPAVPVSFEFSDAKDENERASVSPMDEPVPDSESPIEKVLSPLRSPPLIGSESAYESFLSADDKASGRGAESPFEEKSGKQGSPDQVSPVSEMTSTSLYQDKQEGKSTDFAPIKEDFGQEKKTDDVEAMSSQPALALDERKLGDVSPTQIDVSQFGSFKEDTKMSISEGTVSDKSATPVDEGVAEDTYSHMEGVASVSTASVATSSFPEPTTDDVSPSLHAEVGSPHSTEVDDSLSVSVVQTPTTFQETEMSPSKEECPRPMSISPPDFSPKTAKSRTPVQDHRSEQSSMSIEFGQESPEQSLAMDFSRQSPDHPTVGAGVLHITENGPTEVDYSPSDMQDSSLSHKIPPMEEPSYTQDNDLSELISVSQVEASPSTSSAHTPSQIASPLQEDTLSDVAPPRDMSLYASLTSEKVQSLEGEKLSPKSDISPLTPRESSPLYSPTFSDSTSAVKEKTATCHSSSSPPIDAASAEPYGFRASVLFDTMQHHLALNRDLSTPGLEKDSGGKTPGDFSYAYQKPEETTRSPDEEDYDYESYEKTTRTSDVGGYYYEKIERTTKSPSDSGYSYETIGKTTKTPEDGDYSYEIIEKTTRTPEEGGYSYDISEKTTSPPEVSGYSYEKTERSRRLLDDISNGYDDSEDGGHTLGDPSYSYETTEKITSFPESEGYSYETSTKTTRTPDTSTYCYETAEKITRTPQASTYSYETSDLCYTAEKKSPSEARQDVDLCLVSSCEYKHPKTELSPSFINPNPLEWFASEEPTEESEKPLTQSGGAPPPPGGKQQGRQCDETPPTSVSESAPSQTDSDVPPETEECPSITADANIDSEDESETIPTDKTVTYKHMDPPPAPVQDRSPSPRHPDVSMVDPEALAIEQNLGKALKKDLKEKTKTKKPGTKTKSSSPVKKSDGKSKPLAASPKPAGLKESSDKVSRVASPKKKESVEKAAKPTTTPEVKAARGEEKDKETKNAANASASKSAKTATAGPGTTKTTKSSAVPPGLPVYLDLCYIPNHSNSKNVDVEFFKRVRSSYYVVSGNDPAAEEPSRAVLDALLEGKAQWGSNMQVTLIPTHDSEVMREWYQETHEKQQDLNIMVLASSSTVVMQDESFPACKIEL", "UniProt P12980": "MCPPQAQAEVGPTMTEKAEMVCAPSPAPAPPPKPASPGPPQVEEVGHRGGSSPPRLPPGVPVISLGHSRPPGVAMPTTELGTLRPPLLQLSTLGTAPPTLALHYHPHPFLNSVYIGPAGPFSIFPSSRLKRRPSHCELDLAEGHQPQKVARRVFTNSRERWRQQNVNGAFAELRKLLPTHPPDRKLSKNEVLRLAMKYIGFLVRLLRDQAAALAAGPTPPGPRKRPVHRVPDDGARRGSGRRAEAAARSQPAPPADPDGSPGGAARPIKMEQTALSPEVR"}, "source": "the supplement of paper PMC10849652", "note": "The other results are listed elsewhere or left out."}
{"compound": "C1=CC(=C(C=C1Cl)C2=NC3=NC=CN=C3C(=N2)NC4=CC=NC=C4)F", "assay": "log2 fold change, soluble protein after heating vs DMSO (PISA); higher = thermal stabilisation; K562 cells, 10 uM, 30 min; active = over 0.2 and 3.5 SD of the protein, either way, in both replicates (recomputed)", "in_short": "(§1)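 Thermal stability values are relative to control samples and come from duplicates. They are expressed as log2 fold changes. For measurement, K562 cells (2×10^6 cells/mL) received 10 μM compound for 30 min, and aliquots were heated for 3 min over 48°C-58°C, pooled, and extracted at 4°C in PBS with 0.5% NP-40. Soluble protein, the supernatant after 21,000xg for 90 min, was quantified by TMTpro 16plex LC-MS/MS with equalised channel sums.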"}
{"target": "MAP4 (UniProt E7EVA0)", "log2 fold change": "inactive: -0.219"}
{"target": "MAPK12 (UniProt P53778)", "log2 fold change": "inactive: -0.093"}
{"target": "M6PR (UniProt P20645)", "log2 fold change": "inactive: 0.062"}
{"target": "LRSAM1 (UniProt Q6UWE0)", "log2 fold change": "inactive: 0.053"}
{"target": "LSM6 (UniProt P62312)", "log2 fold change": "inactive: 0.039"}
{"target": "MAN1A2 (UniProt O60476)", "log2 fold change": "inactive: 0.038"}
{"target": "MAP2K3 isoform 3 (UniProt P46734)", "log2 fold change": "inactive: 0.002"}
{"target": "MARCHF6 (UniProt O60337)", "log2 fold change": "inactive: 0.067"}
{"target": "LTBP1 isoform 4 (UniProt Q14766)", "log2 fold change": "inactive: 0.106"}
{"target": "LRRFIP1 (UniProt Q32MZ4)", "log2 fold change": "inactive: -0.027"}
{"target": "MAGEA9 (UniProt P43362)", "log2 fold change": "inactive: 0.001"}
{"target": "MAK16 (UniProt Q9BXY0)", "log2 fold change": "inactive: -0.172"}
{"target": "LYZ (UniProt P61626)", "log2 fold change": "inactive: 0.057"}
{"target": "MAN2C1 isoform 4 (UniProt Q9NTJ4)", "log2 fold change": "inactive: 0.158"}
{"target": "MAP7D1 (UniProt Q3KQU3)", "log2 fold change": "inactive: -0.42"}
{"target": "MAD2L1 (UniProt Q13257)", "log2 fold change": "inactive: 0.029"}
{"target": "MARCKSL1 (UniProt P49006)", "log2 fold change": "inactive: -0.047"}
{"target": "LYPLA2 (UniProt O95372)", "log2 fold change": "active: 0.345"}
{"target": "MADD isoform 2 (UniProt Q8WXG6)", "log2 fold change": "inactive: -0.147"}
{"target": "MAPRE3 (UniProt Q9UPY8)", "log2 fold change": "inactive: 0.076"}
{"target": "LSM14A isoform 2 (UniProt Q8ND56)", "log2 fold change": "inactive: -0.079"}
{"target": "MAGEB2 (UniProt O15479)", "log2 fold change": "inactive: -0.182"}
{"target": "MACROD1 (UniProt Q9BQ69)", "log2 fold change": "inactive: 0.095"}
{"target": "LYPLAL1 (UniProt Q5VWZ2)", "log2 fold change": "inactive: 0.074"}
{"target": "MAP1B (UniProt P46821)", "log2 fold change": "inactive: -0.04"}
{"target": "LYL1 (UniProt P12980)", "log2 fold change": "inactive: 0.242"}
{"target": "MACF1 (UniProt Q9UPN3)", "log2 fold change": "inactive: -0.104"}
{"target": "MAN2A1 (UniProt Q16706)", "log2 fold change": "inactive: -0.028"}
{"target": "MARCHF5 (UniProt Q9NX47)", "log2 fold change": "inactive: -0.038"}
{"target": "LYRM4 (UniProt Q9HD34)", "log2 fold change": "inactive: 0.126"}
{"target": "LYRM7 (UniProt Q5U5X0)", "log2 fold change": "inactive: 0.012"}
{"target": "MAPKAPK5 (UniProt Q8IW41)", "log2 fold change": "inactive: 0.024"}
{"target": "LUC7L (UniProt Q9NQ29)", "log2 fold change": "inactive: -0.092"}
{"compound": "C1=CC(=CC=C1C2=NC3=C(N2)C=C(C=C3)C(=O)N)OC4=CC=C(C=C4)Cl", "assay": "log2 fold change, soluble protein after heating vs DMSO (PISA); higher = thermal stabilisation; K562 cells, 10 uM, 30 min; active = over 0.2 and 3.5 SD of the protein, either way, in both replicates (recomputed)", "in_short": "as §1"}
{"target": "MAP4 (UniProt E7EVA0)", "log2 fold change": "inactive: 0.063"}
{"target": "MAPK12 (UniProt P53778)", "log2 fold change": "inactive: -0.053"}
{"target": "M6PR (UniProt P20645)", "log2 fold change": "inactive: 0.015"}
{"target": "LRSAM1 (UniProt Q6UWE0)", "log2 fold change": "inactive: 0.026"}
{"target": "LSM6 (UniProt P62312)", "log2 fold change": "inactive: 0.017"}
{"target": "MAN1A2 (UniProt O60476)", "log2 fold change": "inactive: 0.03"}
{"target": "MAP2K3 isoform 3 (UniProt P46734)", "log2 fold change": "inactive: 0.009"}
{"target": "MARCHF6 (UniProt O60337)", "log2 fold change": "inactive: 0.044"}
{"target": "LTBP1 isoform 4 (UniProt Q14766)", "log2 fold change": "inactive: 0.063"}
{"target": "LRRFIP1 (UniProt Q32MZ4)", "log2 fold change": "inactive: 0.018"}
{"target": "MAGEA9 (UniProt P43362)", "log2 fold change": "inactive: 0.076"}
{"target": "MAK16 (UniProt Q9BXY0)", "log2 fold change": "inactive: 0.108"}
{"target": "LYZ (UniProt P61626)", "log2 fold change": "inactive: 0.108"}
{"target": "MAN2C1 isoform 4 (UniProt Q9NTJ4)", "log2 fold change": "inactive: 0.058"}
{"target": "MAP7D1 (UniProt Q3KQU3)", "log2 fold change": "inactive: 0.045"}
{"target": "MAD2L1 (UniProt Q13257)", "log2 fold change": "inactive: -0.052"}
{"target": "MARCKSL1 (UniProt P49006)", "log2 fold change": "inactive: -0.02"}
{"target": "LYPLA2 (UniProt O95372)", "log2 fold change": "inactive: -0.01"}
{"target": "MADD isoform 2 (UniProt Q8WXG6)", "log2 fold change": "inactive: 0"}
{"target": "MAPRE3 (UniProt Q9UPY8)", "log2 fold change": "inactive: 0.003"}
{"target": "LSM14A isoform 2 (UniProt Q8ND56)", "log2 fold change": "inactive: -0.017"}
{"target": "MAGEB2 (UniProt O15479)", "log2 fold change": "inactive: 0.078"}
{"target": "MACROD1 (UniProt Q9BQ69)", "log2 fold change": "inactive: 0.032"}
{"target": "LYPLAL1 (UniProt Q5VWZ2)", "log2 fold change": "inactive: 0.01"}
{"target": "MAP1B (UniProt P46821)", "log2 fold change": "inactive: -0.024"}
{"target": "LYL1 (UniProt P12980)", "log2 fold change": "inactive: 0.158"}
{"target": "MACF1 (UniProt Q9UPN3)", "log2 fold change": "inactive: 0.001"}
{"target": "MAN2A1 (UniProt Q16706)", "log2 fold change": "inactive: 0.027"}
{"target": "MARCHF5 (UniProt Q9NX47)", "log2 fold change": "inactive: 0.039"}
{"target": "LYRM4 (UniProt Q9HD34)", "log2 fold change": "inactive: -0.032"}
{"target": "LYRM7 (UniProt Q5U5X0)", "log2 fold change": "inactive: -0.021"}
{"target": "MAPKAPK5 (UniProt Q8IW41)", "log2 fold change": "inactive: -0.087"}
{"target": "LUC7L (UniProt Q9NQ29)", "log2 fold change": "inactive: 0.114"}
{"compound": "C1=CC2=C(C=CC(=C2)/C=C\\3/C(=O)NC(=NCC4=CC=CS4)S3)N=C1", "assay": "log2 fold change, soluble protein after heating vs DMSO (PISA); higher = thermal stabilisation; K562 cells, 10 uM, 30 min; active = over 0.2 and 3.5 SD of the protein, either way, in both replicates (recomputed)", "in_short": "as §1"}
{"target": "MAP4 (UniProt E7EVA0)", "log2 fold change": "inactive: -0.087"}
{"target": "MAPK12 (UniProt P53778)", "log2 fold change": "inactive: 0.008"}
{"target": "M6PR (UniProt P20645)", "log2 fold change": "inactive: -0.123"}
{"target": "LRSAM1 (UniProt Q6UWE0)", "log2 fold change": "inactive: -0.029"}
{"target": "LSM6 (UniProt P62312)", "log2 fold change": "inactive: -0.2"}
{"target": "MAN1A2 (UniProt O60476)", "log2 fold change": "inactive: 0.021"}
{"target": "MAP2K3 isoform 3 (UniProt P46734)", "log2 fold change": "inactive: 0.036"}
{"target": "MARCHF6 (UniProt O60337)", "log2 fold change": "inactive: 0.104"}
{"target": "LTBP1 isoform 4 (UniProt Q14766)", "log2 fold change": "inactive: 0.038"}
{"target": "LRRFIP1 (UniProt Q32MZ4)", "log2 fold change": "inactive: -0.01"}
{"target": "MAGEA9 (UniProt P43362)", "log2 fold change": "inactive: -0.07"}
{"target": "MAK16 (UniProt Q9BXY0)", "log2 fold change": "inactive: 0.01"}
{"target": "LYZ (UniProt P61626)", "log2 fold change": "inactive: 0.041"}
{"target": "MAN2C1 isoform 4 (UniProt Q9NTJ4)", "log2 fold change": "inactive: 0.046"}
{"target": "MAP7D1 (UniProt Q3KQU3)", "log2 fold change": "inactive: -0.053"}
{"target": "MAD2L1 (UniProt Q13257)", "log2 fold change": "inactive: 0.033"}
{"target": "MARCKSL1 (UniProt P49006)", "log2 fold change": "inactive: -0.031"}
{"target": "LYPLA2 (UniProt O95372)", "log2 fold change": "inactive: 0.081"}
{"target": "MADD isoform 2 (UniProt Q8WXG6)", "log2 fold change": "inactive: 0.057"}
{"target": "MAPRE3 (UniProt Q9UPY8)", "log2 fold change": "inactive: -0.013"}
{"target": "LSM14A isoform 2 (UniProt Q8ND56)", "log2 fold change": "inactive: 0.039"}
{"target": "MAGEB2 (UniProt O15479)", "log2 fold change": "inactive: -0.052"}
{"target": "MACROD1 (UniProt Q9BQ69)", "log2 fold change": "inactive: 0.228"}
{"target": "LYPLAL1 (UniProt Q5VWZ2)", "log2 fold change": "inactive: 0.026"}
{"target": "MAP1B (UniProt P46821)", "log2 fold change": "inactive: -0.006"}
{"target": "LYL1 (UniProt P12980)", "log2 fold change": "inactive: 0.237"}
{"target": "MACF1 (UniProt Q9UPN3)", "log2 fold change": "inactive: 0"}
{"target": "MAN2A1 (UniProt Q16706)", "log2 fold change": "inactive: 0.032"}
{"target": "MARCHF5 (UniProt Q9NX47)", "log2 fold change": "inactive: -0.01"}
{"target": "LYRM4 (UniProt Q9HD34)", "log2 fold change": "inactive: -0.09"}
{"target": "LYRM7 (UniProt Q5U5X0)", "log2 fold change": "inactive: 0.051"}
{"target": "MAPKAPK5 (UniProt Q8IW41)", "log2 fold change": "inactive: 0.019"}
{"target": "LUC7L (UniProt Q9NQ29)", "log2 fold change": "inactive: -0.062"}
